Binding data for 2 molecules are collected here from paper PMC12203999.

No constants are given. Whether binding was seen depends on the method and setting. In cells and extracts the contact can be indirect. Some entries that bind do so weakly or less than the wild type. For part of these data: Tags and fused reporters may be left off the sequences shown.

In assay [1] the target is T1, mitochondrial pyruvate carrier 1 (MPC1), endogenous in primary rat PASMCs (rat (endogenous in primary rat PASMCs)) (UniProt P63031).
T1 sequence: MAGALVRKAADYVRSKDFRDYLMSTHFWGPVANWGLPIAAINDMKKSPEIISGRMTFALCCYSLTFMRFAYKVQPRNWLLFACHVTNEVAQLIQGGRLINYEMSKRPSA
Put plainly: co-IP; primary PASMC lysate supernatants incubated overnight at 4°C with 2 μg of LONP1 or MPC1 antibody or control IgG, protein A/G beads 2 hours at room temperature, Western blot.

In assay [2] the target is T2, Lon protease 1 (LONP1), endogenous in primary rat PASMCs (rat (endogenous in primary rat PASMCs)) (UniProt Q924S5).
T2 sequence: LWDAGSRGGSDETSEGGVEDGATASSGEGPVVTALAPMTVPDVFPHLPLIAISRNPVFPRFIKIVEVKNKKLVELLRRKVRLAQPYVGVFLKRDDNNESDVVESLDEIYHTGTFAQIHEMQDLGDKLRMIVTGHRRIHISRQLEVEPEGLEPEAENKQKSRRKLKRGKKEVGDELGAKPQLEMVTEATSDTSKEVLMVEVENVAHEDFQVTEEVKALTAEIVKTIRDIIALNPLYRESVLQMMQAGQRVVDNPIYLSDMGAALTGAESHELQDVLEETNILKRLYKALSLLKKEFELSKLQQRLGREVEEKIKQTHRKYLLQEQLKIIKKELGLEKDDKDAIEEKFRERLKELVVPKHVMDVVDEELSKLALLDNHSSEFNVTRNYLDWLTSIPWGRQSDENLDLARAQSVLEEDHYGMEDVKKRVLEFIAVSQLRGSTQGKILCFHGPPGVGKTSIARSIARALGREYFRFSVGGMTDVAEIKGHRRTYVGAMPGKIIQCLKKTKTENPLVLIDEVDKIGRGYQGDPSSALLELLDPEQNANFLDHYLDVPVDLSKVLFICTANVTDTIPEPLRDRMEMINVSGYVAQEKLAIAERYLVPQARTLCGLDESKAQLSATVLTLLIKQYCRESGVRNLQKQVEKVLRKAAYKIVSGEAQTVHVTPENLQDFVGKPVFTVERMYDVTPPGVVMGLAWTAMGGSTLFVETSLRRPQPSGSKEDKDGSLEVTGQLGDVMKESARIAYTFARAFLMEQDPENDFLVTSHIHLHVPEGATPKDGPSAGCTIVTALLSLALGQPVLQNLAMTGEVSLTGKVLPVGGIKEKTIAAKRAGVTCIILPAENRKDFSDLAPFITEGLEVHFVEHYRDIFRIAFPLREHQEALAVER
The description is as above.

In the next assay the target is T3, recombinant GST-LONP1 (UniProt Q924S5).
T3 sequence: T2 sequence
Put plainly: pull-down; 200 μg GST or GST-LONP1 on 30 μl glutathione magnetic beads (bait), PASMC lysate supernatant added overnight at 4°C (prey MPC1), eluted, Western blot; only the target purified. Background: In western blotting, separated proteins are transferred to a membrane and probed.

B1: Lon protease 1 (LONP1), endogenous in primary rat PASMCs (enzyme, UniProt Q924S5 66-950)
chain: T2 sequence
As to B1, the binding entry in assay [1] is given as “binds”.

B2: mitochondrial pyruvate carrier 1 (MPC1), endogenous in primary rat PASMCs (protein, UniProt P63031 1-109)
chain: T1 sequence
As for B2, the binding result (in assay [2]; in the assay with recombinant GST-LONP1) was “binds” in each case.
